Measured values from publication doi:10.1101/2020.06.29.177584.
Where two headings read alike, the source gives them in different places. No constants are given. Whether binding was seen depends on the method and setting. Binding seen in cells or lysates may run through a third protein. Some entries that bind do so weakly or less than the wild type. For some of these results: Where a sequence is shown, tags or fusion partners need not be part of it.

Chains of the proteins cited; added tags and fusions are not shown. Residues count along the entry.
MBP-TET1 1-321 (Q3URK3, residues 1-321): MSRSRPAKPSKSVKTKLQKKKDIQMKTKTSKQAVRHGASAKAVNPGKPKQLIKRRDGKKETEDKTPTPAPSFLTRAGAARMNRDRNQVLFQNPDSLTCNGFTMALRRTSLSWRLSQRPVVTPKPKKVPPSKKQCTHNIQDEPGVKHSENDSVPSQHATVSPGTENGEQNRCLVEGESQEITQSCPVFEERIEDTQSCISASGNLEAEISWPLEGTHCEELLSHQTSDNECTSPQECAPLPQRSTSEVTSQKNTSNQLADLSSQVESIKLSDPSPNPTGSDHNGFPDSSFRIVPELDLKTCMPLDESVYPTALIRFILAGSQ
MBP-TET1 1-215 (Q3URK3, residues 1-215): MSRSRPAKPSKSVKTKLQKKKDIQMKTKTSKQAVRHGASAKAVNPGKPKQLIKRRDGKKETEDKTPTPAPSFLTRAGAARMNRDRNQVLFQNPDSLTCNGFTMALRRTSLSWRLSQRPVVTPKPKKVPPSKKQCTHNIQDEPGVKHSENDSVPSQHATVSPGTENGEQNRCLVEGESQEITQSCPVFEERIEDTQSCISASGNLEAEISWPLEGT
MBP-TET1 1-165 (Q3URK3, residues 1-165): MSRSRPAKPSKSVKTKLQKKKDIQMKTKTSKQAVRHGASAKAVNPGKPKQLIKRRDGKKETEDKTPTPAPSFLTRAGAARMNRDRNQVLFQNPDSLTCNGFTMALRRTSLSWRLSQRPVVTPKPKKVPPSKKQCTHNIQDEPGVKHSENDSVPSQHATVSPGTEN
MBP-TET1 1-120 (Q3URK3, residues 1-120): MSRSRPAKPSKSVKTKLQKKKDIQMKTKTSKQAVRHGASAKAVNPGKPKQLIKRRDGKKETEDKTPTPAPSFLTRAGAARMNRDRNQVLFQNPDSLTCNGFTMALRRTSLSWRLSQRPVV

How the values were obtained:
Assay in all cases: pull-down
[1] = target: MBP-TET1 1-321 (mouse) (UniProt Q3URK3)
[2] = target: MBP-TET1 1-120 (mouse) (UniProt Q3URK3)
[3] = target: MBP-TET1 1-165 (mouse) (UniProt Q3URK3)
[4] = target: MBP-TET1 1-215 (mouse) (UniProt Q3URK3)
[5] = target: MBP-TET1 1-321 (mouse) (UniProt Q3URK3); remark: listed apart in the source

Molecule | binding [1] | binding [2] | binding [3] | binding [4] | binding [5]
His-NANOG 1-160 (from UniProt Q80Z64 1-160) (domain or fragment) | binds |  |  |  | 
His-NANOG 91-246 (from UniProt Q80Z64 91-246) (domain or fragment) | binds |  |  |  | 
His-NANOG 194-305 (from UniProt Q80Z64 194-305) (domain or fragment) | binds |  |  |  | 
His-NANOG (protein, UniProt Q80Z64 1-305) MSVGLPGPHSLPSSEEASNSGNASSMPAVFHPENYSCLQGSATEMLCTEAASPRPSSEDLPLQGSPDSSTSPKQKLSSPEADKGPEEEENKVLARKQKMRTVFSQAQLCALKDRFQKQKYLSLQQMQELSSILNLSYKQVKTWFQNQRMKCKRWQKNQWLKTSNGLIQKGSAPVEYPSIHCSYPQGYLVNASGSLSMWGSQTWTNPTWSSQTWTNPTWNNQTWTNPTWSSQAWTAQSWNGQPWNAAPLHNFGEDFLQPYVQLQQNFSASDLEVNLEATRESHAHFSTPQALELFLNYSVTPPGEI |  | binds | binds | binds | binds
